Laboratory results: patent US20190177366A1
No constants are given. Whether binding was seen depends on the method and setting. A result given as binding can be weak or reduced; the word gives no strength.

Chains of the proteins cited; added tags and fusions are not shown. Lines headed by an entry give the natural chain unless they say otherwise; changes in a name come on top.
UniProt Q8NBP7: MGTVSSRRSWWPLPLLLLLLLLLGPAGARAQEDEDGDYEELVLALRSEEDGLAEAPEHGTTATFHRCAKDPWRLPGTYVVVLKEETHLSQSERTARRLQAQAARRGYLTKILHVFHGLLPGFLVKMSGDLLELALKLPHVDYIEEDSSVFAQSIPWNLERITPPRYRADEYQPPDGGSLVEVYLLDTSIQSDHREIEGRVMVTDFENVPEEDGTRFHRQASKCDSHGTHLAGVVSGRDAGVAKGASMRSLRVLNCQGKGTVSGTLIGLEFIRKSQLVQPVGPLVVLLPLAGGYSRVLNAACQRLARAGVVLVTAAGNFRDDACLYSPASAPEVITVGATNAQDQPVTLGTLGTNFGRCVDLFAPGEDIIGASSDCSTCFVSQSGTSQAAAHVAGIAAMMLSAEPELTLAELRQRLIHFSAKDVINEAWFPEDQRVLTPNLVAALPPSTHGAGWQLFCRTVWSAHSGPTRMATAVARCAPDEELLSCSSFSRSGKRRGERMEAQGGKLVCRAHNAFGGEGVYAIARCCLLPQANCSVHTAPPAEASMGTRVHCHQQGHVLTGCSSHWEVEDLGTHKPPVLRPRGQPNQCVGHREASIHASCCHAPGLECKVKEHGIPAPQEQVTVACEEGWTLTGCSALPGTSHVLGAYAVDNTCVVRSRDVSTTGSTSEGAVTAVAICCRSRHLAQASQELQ

Target: PCSK9Δhelix (human) (UniProt Q8NBP7)
Assay: phage spot ELISA

| binding | Binder |
| --- | --- |
| binds | TAFTSWEEYLDWVGSGGREMRSVIQM [SEQ ID NO 344] |
| binds | TAFTSWEEYLDWVGSGGDCGYHYMCSMT [SEQ ID NO 345] |
| binds | TAFTSWEEYLDWVGSGQELPNHRRLS [SEQ ID NO 346] |
| binds | TAFTSWEEYLDWVGSGNMCYLRGKMDCNIV [SEQ ID NO 347] |
| binds | TAFTSWEEYLDWVGSGVCSDHYIGGKEVRC [SEQ ID NO 348] |
| binds | TAFTSWEEYLDWVGSGSETGLGTYYG [SEQ ID NO 350] |
| binds | TAFTSWEEYLDWVGSGSPCRVGYTPC [SEQ ID NO 351] |
| binds | TAFTSWEEYLDWVGSGNCARLYSHQRDYSQVC [SEQ ID NO 352] |
| binds | TAFTSWEEYLDWVGSGCLDRSGGCYTREGYLS [SEQ ID NO 353] |
| binds | TAFTSWEEYLDWVGSGSSTWHFVGGVRV [SEQ ID NO 354] |
| binds | TAFTSWEEYLDWVGSGCYPLCRVG [SEQ ID NO 355] |
| binds | TAFTSWEEYLDWVGSGKCDSHYIRGVVACH [SEQ ID NO 356] |
| binds | TAFTSWEEYLDWVGSGKMTHMKAD [SEQ ID NO 357] |
| binds | TAFTSWEEYLDWVGSGGCGYRYMCDMINGL [SEQ ID NO 358] |
| binds | TAFTSWEEYLDWVGSGGDCYPHCRLV [SEQ ID NO 359] |
| binds | TAFTSWEEYLDWVGSGDCLRYRVGSSCS [SEQ ID NO 360] |
| binds | TAFTSWEEYLDWVGSGPTSGLTPS [SEQ ID NO 361] |
| binds | TAFTSWEEYLDWVGSGRCESKGWANTCVSE [SEQ ID NO 362] |
| binds | TAFTSWEEYLDWVGSGQVTSLPQA [SEQ ID NO 363] |
| binds | TAFTSWEEYLDWVGSGCYPLCRVL [SEQ ID NO 364] |
| binds | TAFTSWEEYLDWVGSGRCGLAWCVVLVDQ [SEQ ID NO 365] |
| binds | SGPRTYLRGLVD [SEQ ID NO 366] |
| binds | SGNCWSSLRGICENLG [SEQ ID NO 367] |
| binds | SGMVYVDRGVRVFT [SEQ ID NO 368] |
| binds | SGGCVKYRGSVSCQESKT [SEQ ID NO 369] |

More lines, now with the values behind:

| Binder | binding |
| --- | --- |
| TAFTSWEEYLDWVGSGKLWNLGRV [SEQ ID NO 306] | binds |
| TAFTSWEEYLDWVGSGNCWSSLRGICENLG [SEQ ID NO 307] | binds |
| TAFTSWEEYLDWVGSGVLWNHSRI [SEQ ID NO 308] | binds |
| TAFTSWEEYLDWVGSGGPWNLNRV [SEQ ID NO 309] | binds |
| TAFTSWEEYLDWVGSGPLLWNLQKVH [SEQ ID NO 310] | binds |
| TAFTSWEEYLDWVGSGSCSWNVERIRGCSV [SEQ ID NO 311] | binds |
| TAFTSWEEYLDWVGSGKLWNLTRISS [SEQ ID NO 312] | binds |
| TAFTSWEEYLDWVGSGVVLWNHSRIL [SEQ ID NO 313] | binds |
| TAFTSWEEYLDWVGSGCWNLKRIGSQGC [SEQ ID NO 6] | binds |
| TAFTSWEEYLDWVGSGVPWNLARL [SEQ ID NO 314] | binds |
| TAFTSWEEYLDWVGSGVPWNLAKI [SEQ ID NO 315] | binds |
| TAFTSWEEYLDWVGSGGHPLWNLSRI [SEQ ID NO 316] | binds |
| TAFTSWEEYLDWVGSGNELWNINRLRSS [SEQ ID NO 317] | binds |
| TAFTSWEEYLDWVGSGMPWNLARIER [SEQ ID NO 318] | binds |
| TAFTSWEEYLDWVGSGALWNMRRVESVAFR [SEQ ID NO 319] | binds |
| TAFTSWEEYLDWVGSGGEYLWNLKRLES [SEQ ID NO 320] | binds |
| TAFTSWEEYLDWVGSGTRYADRGVMVYSLS [SEQ ID NO 321] | binds |
| TAFTSWEEYLDWVGSGMVYVDRGVRVFT [SEQ ID NO 322] | binds |
| TAFTSWEEYLDWVGSGGCVKYRGSVSCQESKT [SEQ ID NO 323] | binds |
| TAFTSWEEYLDWVGSGEHQFYSYRGVDVYR [SEQ ID NO 324] | binds |

| Binder | binding |
| --- | --- |
| TAFTSWEEYLDWVGSGKNNYAYLINMPRAPGI [SEQ ID NO 325] | binds |
| TAFTSWEEYLDWVGSGRGGYELNIPR [SEQ ID NO 326] | binds |
| TAFTSWEEYLDWVGSGACLNHFVSGNMIRC [SEQ ID NO 327] | binds |
| TAFTSWEEYLDWVGSGCPFYDWRCSDFS [SEQ ID NO 328] | binds |
| TAFTSWEEYLDWVGSGNVRCYRDVPSCS [SEQ ID NO 329] | binds |
| TAFTSWEEYLDWVGSGEDVVCYGRVDYMPLCV [SEQ ID NO 330] | binds |
| TAFTSWEEYLDWVGSGNPTYWLTRIS [SEQ ID NO 331] | binds |
| TAFTSWEEYLDWVGSGPHSYWLDRVQ [SEQ ID NO 332] | binds |
| TAFTSWEEYLDWVGSGDCNLWGDDGKYRLCF [SEQ ID NO 333] | binds |
| TAFTSWEEYLDWVGSGCVKVGLSWIGDCNS [SEQ ID NO 334] | binds |
| TAFTSWEEYLDWVGSGGVLGVGGMWIA [SEQ ID NO 335] | binds |
| TAFTSWEEYLDWVGSGSYRGAWSVFGGSTD [SEQ ID NO 336] | binds |
| TAFTSWEEYLDWVGSGCMEAWQCSLA [SEQ ID NO 337] | binds |
| TAFTSWEEYLDWVGSGQCYPWCRL [SEQ ID NO 338] | binds |
| TAFTSWEEYLDWVGSGCWTYLRGGCSVT [SEQ ID NO 339] | binds |
| TAFTSWEEYLDWVGSGPRTYLRGLVD [SEQ ID NO 340] | binds |
| TAFTSWEEYLDWVGSGQTTYLRVSSS [SEQ ID NO 341] | binds |
| TAFTSWEEYLDWVGSGQISYLRNA [SEQ ID NO 342] | binds |
| TAFTSWEEYLDWVGSGRGEVYDKGGVIVHL [SEQ ID NO 343] | binds |
